Measured values as given in patent US20100150918A1.
These are yes or no findings as the source states them, for the method shown. Some results given as binding are weak or reduced against the parent protein; the word gives no strength.

Assays:
Test in all cases: FACS 293-HEK transfectant
[1] = target: T1, 1-27 CD3-EpCAM, marmoset 27 mer (Callithrix jacchus; cynomolgus)
T1 sequence: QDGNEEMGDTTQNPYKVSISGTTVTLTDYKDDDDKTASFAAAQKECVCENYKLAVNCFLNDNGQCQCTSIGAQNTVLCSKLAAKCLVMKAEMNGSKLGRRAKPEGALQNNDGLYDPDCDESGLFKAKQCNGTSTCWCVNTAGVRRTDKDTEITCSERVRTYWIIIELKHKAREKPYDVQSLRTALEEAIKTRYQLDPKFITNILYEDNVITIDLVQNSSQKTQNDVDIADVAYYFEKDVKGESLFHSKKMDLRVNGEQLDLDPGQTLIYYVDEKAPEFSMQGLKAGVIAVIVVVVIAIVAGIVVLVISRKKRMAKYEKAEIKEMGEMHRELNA

[2] = target: T2, 1-27 CD3-EpCAM, squirrel monkey 27 mer (Saimiri sciureus; cynomolgus)
T2 sequence: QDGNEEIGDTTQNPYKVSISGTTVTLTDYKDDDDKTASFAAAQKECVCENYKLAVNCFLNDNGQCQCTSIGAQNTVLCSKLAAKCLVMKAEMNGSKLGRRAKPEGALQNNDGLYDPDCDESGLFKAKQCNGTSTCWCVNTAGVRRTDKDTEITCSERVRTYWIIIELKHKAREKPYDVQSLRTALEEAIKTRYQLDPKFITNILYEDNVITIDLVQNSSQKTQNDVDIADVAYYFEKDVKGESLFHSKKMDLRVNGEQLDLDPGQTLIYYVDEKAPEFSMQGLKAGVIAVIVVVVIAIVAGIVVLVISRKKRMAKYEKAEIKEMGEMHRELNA

[3] = target: T3, 1-27 CD3-EpCAM, tamarin 27 mer (Saguinus oedipus; cynomolgus)
T3 sequence: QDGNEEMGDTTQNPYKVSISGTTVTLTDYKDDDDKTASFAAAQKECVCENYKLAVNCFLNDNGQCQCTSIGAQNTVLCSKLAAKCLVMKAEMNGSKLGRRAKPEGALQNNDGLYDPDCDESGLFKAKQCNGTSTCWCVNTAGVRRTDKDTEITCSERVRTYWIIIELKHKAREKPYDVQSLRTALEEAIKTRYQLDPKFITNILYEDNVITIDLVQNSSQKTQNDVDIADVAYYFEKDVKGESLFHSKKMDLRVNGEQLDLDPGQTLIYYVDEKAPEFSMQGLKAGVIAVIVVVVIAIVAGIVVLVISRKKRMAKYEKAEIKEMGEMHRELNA

Measured: binding

B1: E2M HLP (scFv)
scFv: EVQLLESGGGLVQPGGSLKLSCAASGFTFNGYAMNWVRQAPGKGLEWVARIRSKYNNYATYYADSVKERFTISRDDSKNTAYLQMNNLKTEDTAVYYCVRHRNFGNSYLSWFAYWGQGTLVTVSSGGGGSGGGGSGGGGSELVVTQEPSLTVSPGGTVTLTCRSSTGAVTSGYYPNWVQQKPGQAPRGLIGATDMRPSGTPARFSGSLLGGKAALTLSGVQPEDEAEYYCALWYSNRWVFGGGTKLTVL
binds: all assays above
